From patent US20190127468A1
No constants are given. Whether binding was seen depends on the method and setting. Some results given as binding are weak or reduced against the parent protein; the word gives no strength.

Protein sequences, listed by entry. Tags and fused reporters are not part of them. Residues count along the entry.
UniProt P16410, residues 37-162: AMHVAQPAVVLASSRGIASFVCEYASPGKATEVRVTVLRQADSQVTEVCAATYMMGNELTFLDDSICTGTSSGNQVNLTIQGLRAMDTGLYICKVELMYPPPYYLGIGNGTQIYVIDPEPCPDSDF
UniProt P09793, residues 36-162: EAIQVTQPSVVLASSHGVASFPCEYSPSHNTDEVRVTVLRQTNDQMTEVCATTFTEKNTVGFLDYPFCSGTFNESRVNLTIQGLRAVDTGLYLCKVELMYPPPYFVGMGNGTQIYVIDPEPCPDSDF

Legend:
[1] = target: huCTLA4 (antigen of the Octet experiments) (human) (UniProt P16410); assay: BLI (Octet), summary of Table 5
[2] = target: human CTLA4-Fc fusion protein (biotinylated, used in the blocking studies) (human) (UniProt P16410); assay: ELISA, antibody coated on plate, soluble CTLA4
[3] = target: human CTLA4-Fc fusion protein (biotinylated, used in the blocking studies) (human) (UniProt P16410); assay: ELISA, plate-coated CTLA4-Ig, antibody in solution
[4] = target: human CTLA4-Fc fusion protein (biotinylated, used in the blocking studies) (human) (UniProt P16410); assay: ELISA, antibody coated on plate, soluble CTLA4 as in FIG. 37
[5] = target: human CTLA4-Fc fusion protein (biotinylated, used in the blocking studies) (human) (UniProt P16410); assay: capture ELISA as in FIG. 37: antibody coated on the plate at the given concentration, biotinylated CTLA4-Fc 0.25 µg/ml, HRP-streptavidin, OD450
[6] = target: Control IgG1-Fc (human) [IgG part: P01857]; assay: ELISA, plate-coated IgG1-Fc, biotinylated L3D10
[7] = target: mouse CTLA4-Fc fusion protein (mouse) (UniProt P09793); assay: ELISA, plate-coated mCTLA4-Fc, biotinylated L3D10; weak, taken as non-specific signal

Measured: binding

B1: Humanized HC3 + LC3 (PP4638) (antibody, IgG1, V domains shown)
VH: QVQLQESGPGLVKPSETLSLTCTVSGFSLTSYGLSWIRQPPGKGLEWIGYIWYDGNTNFHSPLKSRVTISVDTSKNQFSLKLSSVTAADTAVYYCAKTEGHYYGSNYGYYALDYWGQGTLVTVSS
VL: DIQMTQSPSSLSASVGDRVTITCRASENIYSNLAWYQQKPGKAPKLLIYAATSLQSGVPSRFSGSGSGTDFTLTISSLQPEDFATYYCQHLWGTPYTFGGGTKVEIK
not listed: [6] | [7]
binds: all other assays above

B2: chimeric L3D10 antibody (antibody, V domains shown)
VH: QVQLKESGPGLVAPSQSLSITCTVSGFSLTSYGLSWVRQPPGKGLEWLGVIWYDGNTNFHSALISRLTISKDNSKSQVFLELNSLQTDDTATYYCAKTEGHYYGSNYGYYALDYWGQGTSVTVSS
VL: DIQMTQSPASLSVSVGETVTITCRASENIYSNLAWYQQKQGKSPQLLVYAATNLADGVPSRFSGSGSGTQYSLKINSLQSEDFGTYFCQHLWGTPYTFGGGTKLEIKR
binds: [6] | [7]
